Measurements taken from patent US20240409603A1.
Results are given in words; binding and its absence hold for the method and conditions named. Some binding calls cover weakened binding; strength is not graded here.

Chains of the proteins cited; added tags and fusions are not shown. Residues count along the entry.
UniProt P10721, residues 26-976: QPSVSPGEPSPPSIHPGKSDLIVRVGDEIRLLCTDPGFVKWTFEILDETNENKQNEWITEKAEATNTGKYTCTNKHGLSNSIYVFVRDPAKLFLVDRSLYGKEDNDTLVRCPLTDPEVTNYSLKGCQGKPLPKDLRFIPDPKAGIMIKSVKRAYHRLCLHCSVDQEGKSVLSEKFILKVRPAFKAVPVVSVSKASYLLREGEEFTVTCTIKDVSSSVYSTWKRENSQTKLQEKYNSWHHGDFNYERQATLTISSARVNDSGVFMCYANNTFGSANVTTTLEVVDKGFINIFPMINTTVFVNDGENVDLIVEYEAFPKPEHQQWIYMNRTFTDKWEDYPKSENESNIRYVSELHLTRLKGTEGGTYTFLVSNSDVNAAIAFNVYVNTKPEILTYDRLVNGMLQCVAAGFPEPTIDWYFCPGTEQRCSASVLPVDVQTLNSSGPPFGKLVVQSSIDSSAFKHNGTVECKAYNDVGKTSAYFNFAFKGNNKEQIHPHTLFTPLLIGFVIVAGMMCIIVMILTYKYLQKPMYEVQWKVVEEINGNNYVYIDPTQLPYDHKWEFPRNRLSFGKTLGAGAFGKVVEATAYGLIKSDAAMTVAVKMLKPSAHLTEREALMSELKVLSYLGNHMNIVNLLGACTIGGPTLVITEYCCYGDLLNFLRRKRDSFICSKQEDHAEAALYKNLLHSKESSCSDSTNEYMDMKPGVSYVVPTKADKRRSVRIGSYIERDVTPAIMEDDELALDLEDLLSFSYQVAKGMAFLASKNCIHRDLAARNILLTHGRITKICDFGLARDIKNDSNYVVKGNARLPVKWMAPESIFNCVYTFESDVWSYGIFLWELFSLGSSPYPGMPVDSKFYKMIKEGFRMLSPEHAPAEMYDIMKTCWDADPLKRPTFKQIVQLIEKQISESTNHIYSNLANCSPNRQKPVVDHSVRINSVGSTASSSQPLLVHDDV

Biological target: wild type human CD117 protein (human) (UniProt P10721)
Assay: flow cytometry on HEK-293T cells transfected with WT CD117

binding: binds
B1: JSP191 (antibody, human IgG1, kappa, N297Q, V domains shown)
VH: QVQLVQSGAEVKKPGASVKVSCKASGYTFTSYNMHWVRQAPGQGLEWMGVIYSGNGDTSYNQKFKGRVTITADKSTSTAYMELSSLRSEDTAVYYCARERDTRFGNWGQGTLVTVSS
VL: DIVMTQSPDSLAVSLGERATINCRASESVDIYGNSFMHWYQQKPGQPPKLLIYLASNLESGVPDRFSGSGSGTDFTLTISSLQAEDVAVYYCQQNNEDPYTFGGGTKVEIKR
